Assay results: PubChem BioAssay AID485314 (National Center for Advancing Translational Sciences (NCATS), 2010)
Hit rate of the full screen: of about 340,000 compounds, about 4,500 (1.3%) were called active. The inconclusive results got no clear call from the source; some entries with a clear call stand among them for comparison. Calls come from the whole dose curve; as a rule, active = well fitted inhibition curve with a large enough effect; inconclusive = small, poorly fitted or top-dose-only effect, or another doubt; inactive = no such curve, though single readings can be large or run the other way. A potency beside an inconclusive call is a rough fit, not a confirmed value.

molecular target: DNA polymerase beta (Homo sapiens) (UniProt P06746); assay: qHTS Assay for Inhibitors of DNA Polymerase Beta; settings: Pol beta primer extension/strand displacement, fluorescence kinetic; activity change, negative = inhibition: at 114 µM (top of the series)
Summary of the method: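 Human Pol beta at 10 nM; strand-displacement substrate 50 nM final. Compound exposure 15 min at room temperature before start, reaction 10 min at room temperature.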
% is set by controls: 0 for no effect and ±100 for the full control effect; potency is the fitted concentration of half-maximal effect.

| Compound | Potency | activity change, negative = inhibition |
| --- | --- | --- |
| Cc1cc(C=C2C(=O)CCCC2=O)c(C)n1-c1ccccc1 | inconclusive: 35.5 µM [inhibitor, partial curve] |  |
| CNC(=O)Nc1cccc(-c2cc(-c3c(Cl)cccc3Cl)no2)c1 | inconclusive: 89.1 µM [inhibitor, single point] |  |
| COc1ccc(C(=O)Nc2ccc(N3CCN(C)CC3)cc2)cc1OC | inconclusive: 4.47 µM [inhibitor, single point] |  |
| CC(=O)Oc1ccc(Cl)cc1/C=C/c1cc(OC(C)=O)c2ccccc2n1 | inconclusive: 1.26 µM [inhibitor, full curve, poor fit] |  |
| CCOc1ccc(NS(=O)(=O)c2ccc(NC(=O)N3CCCC3)cc2)cc1 |  | inactive: 14.3% |
| COCCCNC(=O)Cc1coc2ccc3ccccc3c12 | inconclusive: 17.8 µM [inhibitor, partial curve, poor fit] |  |
| Cc1coc2cc3oc(=O)c(Cc4ccccc4)c(C)c3cc12 | inconclusive: 5.01 µM [inhibitor, single point] |  |
| Cc1ccccc1CS(=O)(=O)Cc1ccc(C(=O)NCc2ccc(F)cc2)o1 |  | inactive: 1.32% |
| Cc1ccc(OCC(=O)NCCCNC(=O)c2ccco2)cc1C |  | inactive: 17.8% |
| CC1=C(C#N)C(=O)N(C2CCS(=O)(=O)C2)C(=O)/C1=C\c1ccco1 (centres undefined) |  | inconclusive: -108% [inhibitor] |
| O=C(Nc1cccc(S(=O)(=O)N2CCOCC2)c1)c1c2c(nc3ccccc13)CCC2 | active: 10 µM |  |
| COc1cccc(NC(=O)CCNC(=O)Cn2ccc3ccccc3c2=O)c1 | inconclusive: 0.141 µM [inhibitor, full curve, poor fit] |  |
| COc1ccccc1N1CCN(C(CNC(=O)C(=O)NCCc2ccccc2)c2cccnc2)CC1 (centres undefined) | inconclusive: 89.1 µM [inhibitor, single point] |  |
| CCN1/C(=C\c2ccc3cc(C)ccc3[n+]2CC)Sc2cc(C)c(C)cc21 | active: 50.1 µM |  |
| COc1cccc(CN(C)CC(=O)Nc2sc3c(c2C#N)CCC3)c1OC | inconclusive: 39.8 µM [inhibitor, single point] |  |
| COc1ccc(C(=O)NNC2=NC(C)(C)Cc3ccccc32)cc1 |  | inactive: -17.8% |
| CCOC(=O)/C(=C\c1ccc(OC)c(OC)c1)C(=O)c1cccnc1 | inconclusive: 100 µM [inhibitor, single point] |  |
| Cc1cc(-n2c(C)nc3ccccc3c2=O)ccc1NC(=O)c1cccc([N+](=O)[O-])c1 | inconclusive: 89.1 µM [inhibitor, single point] |  |
| O=c1c2c3c(sc2nc2n1CCCCC2)CCC3 | active: 31.6 µM |  |
| O=C(Cn1cnc2scc(-c3ccccc3)c2c1=O)NCc1ccco1 | active: 28.2 µM |  |
| Cc1cccc(NCC(=O)N/N=C\c2ccccn2)c1 | inconclusive: 89.1 µM [inhibitor, single point] |  |
| CN=C(NC1CCCCC1)c1ccc([N+](=O)[O-])cc1 | inconclusive: 3.55 µM [inhibitor, full curve] |  |
| COc1ccc(/C=C/C(=O)Nc2ccc3c(c2)OCCO3)cc1OC | inconclusive: 0.891 µM [inhibitor, full curve, poor fit] |  |

Copied from the list.
COc1ccc(C(=O)Nc2ccc(N3CCN(C)CC3)cc2)cc1OC | Potency: inconclusive: 4.47 µM [inhibitor, single point]
COc1ccccc1N1CCN(C(CNC(=O)C(=O)NCCc2ccccc2)c2cccnc2)CC1 (centres undefined) | Potency: inconclusive: 89.1 µM [inhibitor, single point]
Cc1coc2cc3oc(=O)c(Cc4ccccc4)c(C)c3cc12 | Potency: inconclusive: 5.01 µM [inhibitor, single point]
COCCCNC(=O)Cc1coc2ccc3ccccc3c12 | Potency: inconclusive: 17.8 µM [inhibitor, partial curve, poor fit]
Cc1cc(-n2c(C)nc3ccccc3c2=O)ccc1NC(=O)c1cccc([N+](=O)[O-])c1 | Potency: inconclusive: 89.1 µM [inhibitor, single point]

Additional records:

| Compound | Potency | activity change, negative = inhibition |
| --- | --- | --- |
| CSc1cc(C)c(OCC(=O)Nc2ccc(NC(C)=O)cc2)c(C)c1 | inconclusive: 0.891 µM [inhibitor, full curve] |  |
| COc1ccc(-c2ccc(=O)n(CC(=O)NCc3ccco3)n2)cc1 | active: 50.1 µM |  |
| O=C(Cc1ccc([N+](=O)[O-])cc1)NNC(=O)c1ccc2c(c1)OCO2 |  | inconclusive: -30.4% [inhibitor] |
| O=C1CC(c2ccccc2)N1c1ccccc1 (centres undefined) |  | inactive: 11.9% |
| CN1CCN(CC#CCC2(O)c3ccccc3-c3ccccc32)CC1 | inconclusive: 89.1 µM [inhibitor, single point] |  |
| O=C(Nc1ccc(CN2CCOCC2)cc1)c1ccc(-c2ccc(Cl)cc2Cl)o1 |  | inconclusive: -30.4% [inhibitor] |
| COc1ccc(C)cc1S(=O)(=O)N(C)CC(=O)NCc1ccco1 | inconclusive: 89.1 µM [inhibitor, single point] |  |
| O=C1CC(c2ccco2)CC(O)=C1C=Nc1cc(Cl)cc(Cl)c1 (centres undefined) | active: 39.8 µM |  |
| c1ccc(-c2cc(NCCN3CCCCC3)c3ccccc3n2)cc1 |  | inconclusive: -107% [inhibitor] |
| CCCn1cc(S(=O)(=O)c2ccc(CC)cc2)c(=O)c2ccccc21 | inconclusive: 89.1 µM [inhibitor, single point] |  |
| N#CCCN1CCNCC1 | inconclusive: 89.1 µM [inhibitor, single point] |  |
| c1ccc2c3c([nH]c2c1)C(C1CCCCC1)N(Cc1ncc[nH]1)CC3 (centres undefined) | inconclusive: 89.1 µM [inhibitor, single point] |  |
| COc1ccc(Cn2c(=O)oc3ccccc32)cc1F |  | inactive: 7.75% |
| N#C/C(=C\c1ccc(F)c(Cl)c1)S(=O)(=O)c1ccccn1 | inconclusive: 89.1 µM [inhibitor, single point] |  |
| CC(C)(C)c1ccc(C(=O)N/C(=C\c2ccco2)C(=O)O)cc1 | inconclusive: 22.4 µM [inhibitor, full curve] |  |
| COc1ccc(NC(=O)CCn2cccn2)cc1OC |  | inactive: 11.8% |
| COc1ccc(N2CCc3c(C)nc4c(OC)cc(OC)cc4c32)c(OC)c1 |  | inactive: 14.1% |
| O=C(CCN1C(=O)/C(=C/C=C/c2ccccc2)SC1=S)Nc1nc2ccccc2s1 |  | inactive: 6.39% |
| C[N+](C)(C)CCNC(=O)c1c(O)c2c([nH]c1=O)CCCC2 | inconclusive: 89.1 µM [inhibitor, single point] |  |
| COc1ccc(/C(C)=N/Nc2ccccc2Cl)c(O)c1 | inconclusive: 28.2 µM [inhibitor, full curve] |  |
| CCCc1cc2c(-c3ccccc3)cc(=O)oc2cc1OCc1ccc(C(=O)O)o1 | inconclusive: 35.5 µM [inhibitor, full curve, poor fit] |  |
| Fc1ccc(COc2ccc(/C=N/n3cnnc3)cc2)cc1 |  | inactive: 4.92% |
| O=C(c1ccccc1)c1cccn1CC(=O)N1CCc2ccccc2C1 | inconclusive: 0.631 µM [inhibitor, full curve, poor fit] |  |

| Compound | Potency | activity change, negative = inhibition |
| --- | --- | --- |
| CNC(=O)c1c[nH]n2c(=O)c(Cc3ccccc3F)c(C)nc12 | inconclusive: 89.1 µM [inhibitor, single point] |  |
| COCCCNC(NC(=O)c1ccc(Cl)cc1)C(Cl)(Cl)Cl (centres undefined) | inconclusive: 7.08 µM [inhibitor, full curve, poor fit] |  |
| Cc1nc(-c2ccc(C(=O)O)cc2)cs1 | active: 79.4 µM |  |
| CCn1c(SCC(=O)NC2CCCc3ccccc32)nnc1-c1cccs1 (centres undefined) | inconclusive: 89.1 µM [inhibitor, single point] |  |
| O=C(COc1ccc(C(=S)N2CCOCC2)cc1Cl)Nc1ccccc1Cl | inconclusive: 89.1 µM [inhibitor, single point] |  |
| Cc1c(N2C(=O)/C(=C\c3ccccc3O)SC2=S)c(=O)n(-c2ccccc2)n1C |  | inactive: 0.419% |
| COCCCNC(=O)Cn1cnc2sc(C)c(S(=O)(=O)N3CCN(c4ccccc4OC)CC3)c2c1=O | inconclusive: 39.8 µM [inhibitor, single point] |  |
| O=C(O)CSc1cc(C(=O)c2ccccc2O)cn2c(=O)c3c4c(sc3nc12)CCCC4 |  | inconclusive: -80.3% [inhibitor] |
| CCN1CCN(C(=O)c2ccc3c(c2)N(Cc2cccc(F)c2)C(=O)c2ccccc2S3)CC1 | inconclusive: 39.8 µM [inhibitor, partial curve] |  |
| CC(C)N1CCN(Cc2ccc(C#CCCO)cc2)CC1CCO (centres undefined) | inconclusive: 25.1 µM [inhibitor, partial curve, poor fit] |  |
| COc1ccc([N+](=O)[O-])cc1N(CC(O)CN1CCCCC1)S(=O)(=O)c1ccc(C)cc1 (centres undefined) | inconclusive: 100 µM [inhibitor, single point] |  |
| CN(C)c1ncc(S(=O)(=O)c2ccc(Cl)cc2)c(-c2ccccc2)n1 | inconclusive: 39.8 µM [inhibitor, single point] |  |
| CN1/C(=C\C(=O)COC(=O)c2ccc(O)c(O)c2)C(C)(C)c2ccccc21 | inconclusive: 56.2 µM [inhibitor, partial curve] |  |
| CCC1=NN2C(=N)/C(=C\c3ccc(OCc4cc(=O)n5nc(CC)sc5n4)c(OC)c3)C(=O)N=C2S1 | active: 4.47 µM |  |
| O=C(Cn1cnc2c(nnn2-c2ccc(F)cc2)c1=O)NCc1ccco1 | inconclusive: 35.5 µM [inhibitor, single point] |  |
| Cc1nn2c3ccccc3nc2c2ccccc12 | inconclusive: 25.1 µM [inhibitor, full curve, poor fit] |  |
| FC(F)(F)c1nc2ccccc2n2c(-c3ccc(Cl)cc3)nnc12 | inconclusive: 89.1 µM [inhibitor, single point] |  |
| COC(=O)c1ccc(/C=N/Nc2nc(-c3ccc(Cl)cc3Cl)cs2)cc1 | inconclusive: 0.708 µM [inhibitor, full curve, poor fit] |  |
| N[C@@H](Cc1ccccc1)C(=O)N1CCC(C(=O)N[C@@H](CCC(=O)O)C(=O)O)CC1 | inconclusive: 25.1 µM [inhibitor, partial curve] |  |
| Oc1cccc(C=NCc2ccccc2)c1O | active: 3.55 µM |  |
| CCCn1c(N)c(N(CCOC)C(=O)c2cc(-c3ccco3)nc3ccccc23)c(=O)[nH]c1=O | active: 44.7 µM |  |
| C=CCn1nnc2sc3c(c2c1=O)CCC(C)C3 (centres undefined) | inconclusive: 28.2 µM [inhibitor, full curve] |  |
| COc1cccc(-c2coc3c(C)c4oc(=O)c(CCC(=O)O)c(C)c4cc23)c1 |  | inconclusive: -42.1% [inhibitor] |
